Values quoted from earlier work as cited in patent US7977378B1, “Compositions and methods for enhancing weight-loss by cyclical administration of compounds” (priority 2007, dated 2011).
At least one compound was matched to its structure with a doubt left. Some results were stated once for a whole list of compounds, not compound by compound. Some compounds share one range, which may span the group rather than tell each member.

Experiments:
[1] = for Reduction of intestinal transit: 100-200 mg kg-1, P<0.05-0.01
[2] = tested on: guinea-pig isolated right atria
[3] = tested on: endothelium-intact rat aorta; details: equal potency

| Compound | Reduction of intestinal transit [1] | other results |
| --- | --- | --- |
| O=C1C[C@@H](c2ccc(O)cc2)Oc2cc(O)cc(O)c21 [naringenin] | 23-41% | – |
| O=C(CCc1ccc(O)cc1)c1c(O)cc(O)cc1O[C@@H]1O[C@H](CO)[C@@H](O)[C@H](O)[C@H]1O [phloridzin] | – | Effect on intestinal transit ([1]; up to 200 mg kg-1): no effect |
| O=c1c2ccccc2nc2n1CCc1c-2[nH]c2ccccc12 [rutaecarpine] | – | Inotropic and chronotropic effects [2]: positive inotropic and chronotropic effects; Vasodilatory effect [3]: vasodilatory effect |
| COc1cc(C2Oc3cc([C@H]4Oc5cc(O)cc(O)c5C(=O)[C@@H]4O)ccc3OC2CO)ccc1O (stereo partly drawn) [silibinin] | 23-41% | – |
| O=C1c2c(O)cc(O)cc2O[C@H](c2ccc(O)c(O)c2)[C@H]1O [taxifolin] | 23-41% | – |
